Data published in the supplement of paper PMC12067093, “Discovery and optimisation of a covalent ligand for TRIM25 and its application to targeted protein ubiquitination” (Chemical Science, 2025).
The list shows a part of the results.

Sequences of proteins named here, by UniProt entry; tags and fusion partners are left off. A change or cut given only in a name is not applied to a line headed by its entry.
UniProt Q8IWT6: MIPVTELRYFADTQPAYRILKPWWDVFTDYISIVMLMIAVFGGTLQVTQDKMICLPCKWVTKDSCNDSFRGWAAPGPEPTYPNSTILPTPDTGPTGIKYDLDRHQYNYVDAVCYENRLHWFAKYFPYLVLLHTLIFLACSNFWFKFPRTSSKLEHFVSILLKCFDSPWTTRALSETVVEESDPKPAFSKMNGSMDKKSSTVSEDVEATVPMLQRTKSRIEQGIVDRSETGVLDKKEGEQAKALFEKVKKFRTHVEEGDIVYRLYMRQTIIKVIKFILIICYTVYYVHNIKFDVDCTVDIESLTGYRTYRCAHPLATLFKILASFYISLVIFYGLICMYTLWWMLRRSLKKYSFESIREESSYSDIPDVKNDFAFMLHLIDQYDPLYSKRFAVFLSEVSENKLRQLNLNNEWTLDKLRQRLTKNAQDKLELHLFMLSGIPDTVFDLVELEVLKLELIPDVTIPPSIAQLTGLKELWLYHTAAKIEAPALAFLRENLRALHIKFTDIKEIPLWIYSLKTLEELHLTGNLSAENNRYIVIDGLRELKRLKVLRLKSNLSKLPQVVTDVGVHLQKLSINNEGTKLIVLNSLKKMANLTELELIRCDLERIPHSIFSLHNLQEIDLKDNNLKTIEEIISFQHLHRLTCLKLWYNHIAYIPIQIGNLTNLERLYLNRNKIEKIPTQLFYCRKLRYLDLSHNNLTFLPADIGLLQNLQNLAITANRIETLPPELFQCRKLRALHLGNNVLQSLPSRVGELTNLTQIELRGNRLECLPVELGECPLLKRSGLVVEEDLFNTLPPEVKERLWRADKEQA
UniProt P48059, whole entry, looked up: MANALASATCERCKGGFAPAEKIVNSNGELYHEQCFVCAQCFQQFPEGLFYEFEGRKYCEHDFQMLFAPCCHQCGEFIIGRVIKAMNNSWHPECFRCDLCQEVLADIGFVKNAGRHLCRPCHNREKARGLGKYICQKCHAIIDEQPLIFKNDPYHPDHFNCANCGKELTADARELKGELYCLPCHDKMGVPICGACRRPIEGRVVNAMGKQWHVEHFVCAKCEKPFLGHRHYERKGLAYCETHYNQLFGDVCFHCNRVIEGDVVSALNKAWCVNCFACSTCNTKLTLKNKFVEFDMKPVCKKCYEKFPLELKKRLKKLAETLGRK
UniProt Q8TDW0: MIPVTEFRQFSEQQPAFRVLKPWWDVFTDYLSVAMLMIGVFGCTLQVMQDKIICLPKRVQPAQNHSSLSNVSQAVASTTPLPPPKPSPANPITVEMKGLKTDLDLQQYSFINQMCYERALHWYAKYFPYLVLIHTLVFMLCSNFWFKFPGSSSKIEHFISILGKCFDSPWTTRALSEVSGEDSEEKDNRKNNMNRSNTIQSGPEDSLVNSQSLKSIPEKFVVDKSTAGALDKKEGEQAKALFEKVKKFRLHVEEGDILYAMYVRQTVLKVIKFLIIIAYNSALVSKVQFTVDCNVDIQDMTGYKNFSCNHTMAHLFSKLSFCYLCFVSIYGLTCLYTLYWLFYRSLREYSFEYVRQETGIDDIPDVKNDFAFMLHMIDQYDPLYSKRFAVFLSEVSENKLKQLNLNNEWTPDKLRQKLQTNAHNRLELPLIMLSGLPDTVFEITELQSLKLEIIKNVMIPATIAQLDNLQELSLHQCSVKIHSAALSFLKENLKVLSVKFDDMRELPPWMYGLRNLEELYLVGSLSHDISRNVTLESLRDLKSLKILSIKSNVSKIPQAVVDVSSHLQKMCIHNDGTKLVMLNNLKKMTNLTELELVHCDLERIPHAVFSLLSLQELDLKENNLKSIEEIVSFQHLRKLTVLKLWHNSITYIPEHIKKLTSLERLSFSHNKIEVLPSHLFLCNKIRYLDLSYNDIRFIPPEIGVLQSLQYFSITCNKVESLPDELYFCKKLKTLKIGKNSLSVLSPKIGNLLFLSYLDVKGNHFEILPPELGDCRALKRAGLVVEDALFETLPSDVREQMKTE
UniProt Q03252: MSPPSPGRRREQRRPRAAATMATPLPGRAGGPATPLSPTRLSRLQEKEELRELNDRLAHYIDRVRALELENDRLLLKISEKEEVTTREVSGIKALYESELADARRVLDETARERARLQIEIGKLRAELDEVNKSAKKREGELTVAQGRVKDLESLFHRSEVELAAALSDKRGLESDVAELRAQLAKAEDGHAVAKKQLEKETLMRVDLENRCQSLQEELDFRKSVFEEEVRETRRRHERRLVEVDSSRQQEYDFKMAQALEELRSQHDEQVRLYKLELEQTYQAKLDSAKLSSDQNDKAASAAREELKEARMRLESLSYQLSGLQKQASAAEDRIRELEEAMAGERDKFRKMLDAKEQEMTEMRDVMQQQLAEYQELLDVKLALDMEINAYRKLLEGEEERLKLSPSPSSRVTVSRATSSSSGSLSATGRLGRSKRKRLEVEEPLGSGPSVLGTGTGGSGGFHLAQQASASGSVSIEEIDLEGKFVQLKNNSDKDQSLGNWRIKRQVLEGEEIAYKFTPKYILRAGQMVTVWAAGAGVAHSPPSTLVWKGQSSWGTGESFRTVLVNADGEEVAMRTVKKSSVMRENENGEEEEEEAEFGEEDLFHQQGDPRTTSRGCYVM
UniProt O75427: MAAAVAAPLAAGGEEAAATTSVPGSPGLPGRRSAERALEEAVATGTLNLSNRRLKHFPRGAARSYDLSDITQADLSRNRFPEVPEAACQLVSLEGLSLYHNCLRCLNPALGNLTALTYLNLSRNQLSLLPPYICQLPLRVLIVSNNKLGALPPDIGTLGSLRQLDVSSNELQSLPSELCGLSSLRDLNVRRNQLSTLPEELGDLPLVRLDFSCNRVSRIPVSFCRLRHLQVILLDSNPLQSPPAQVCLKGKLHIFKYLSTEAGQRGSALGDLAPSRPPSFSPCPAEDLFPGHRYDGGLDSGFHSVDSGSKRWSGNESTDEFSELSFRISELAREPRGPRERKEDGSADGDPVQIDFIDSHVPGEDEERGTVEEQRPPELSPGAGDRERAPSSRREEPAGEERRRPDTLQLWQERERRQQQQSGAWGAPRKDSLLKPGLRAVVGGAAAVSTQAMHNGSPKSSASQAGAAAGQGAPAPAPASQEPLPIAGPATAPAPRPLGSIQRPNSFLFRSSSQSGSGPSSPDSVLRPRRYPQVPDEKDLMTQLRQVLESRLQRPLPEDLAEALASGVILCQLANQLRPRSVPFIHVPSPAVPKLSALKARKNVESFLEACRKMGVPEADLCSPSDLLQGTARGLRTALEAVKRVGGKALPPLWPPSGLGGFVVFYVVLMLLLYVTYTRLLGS
UniProt Q12912: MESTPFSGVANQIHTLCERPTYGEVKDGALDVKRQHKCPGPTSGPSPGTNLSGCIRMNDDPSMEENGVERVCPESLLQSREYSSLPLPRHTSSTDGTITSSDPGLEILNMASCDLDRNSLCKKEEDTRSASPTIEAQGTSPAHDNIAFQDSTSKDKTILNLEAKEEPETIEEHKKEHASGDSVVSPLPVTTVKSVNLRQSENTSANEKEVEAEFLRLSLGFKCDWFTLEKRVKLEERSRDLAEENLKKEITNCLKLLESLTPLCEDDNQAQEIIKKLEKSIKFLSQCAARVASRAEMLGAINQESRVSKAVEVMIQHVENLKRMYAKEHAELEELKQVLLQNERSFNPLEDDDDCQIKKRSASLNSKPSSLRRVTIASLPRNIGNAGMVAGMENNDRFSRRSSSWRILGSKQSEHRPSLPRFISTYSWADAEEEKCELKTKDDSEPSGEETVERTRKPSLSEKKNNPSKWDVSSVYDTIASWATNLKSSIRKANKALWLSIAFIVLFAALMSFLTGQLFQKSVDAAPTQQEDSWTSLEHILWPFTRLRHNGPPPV
UniProt Q9UGP4: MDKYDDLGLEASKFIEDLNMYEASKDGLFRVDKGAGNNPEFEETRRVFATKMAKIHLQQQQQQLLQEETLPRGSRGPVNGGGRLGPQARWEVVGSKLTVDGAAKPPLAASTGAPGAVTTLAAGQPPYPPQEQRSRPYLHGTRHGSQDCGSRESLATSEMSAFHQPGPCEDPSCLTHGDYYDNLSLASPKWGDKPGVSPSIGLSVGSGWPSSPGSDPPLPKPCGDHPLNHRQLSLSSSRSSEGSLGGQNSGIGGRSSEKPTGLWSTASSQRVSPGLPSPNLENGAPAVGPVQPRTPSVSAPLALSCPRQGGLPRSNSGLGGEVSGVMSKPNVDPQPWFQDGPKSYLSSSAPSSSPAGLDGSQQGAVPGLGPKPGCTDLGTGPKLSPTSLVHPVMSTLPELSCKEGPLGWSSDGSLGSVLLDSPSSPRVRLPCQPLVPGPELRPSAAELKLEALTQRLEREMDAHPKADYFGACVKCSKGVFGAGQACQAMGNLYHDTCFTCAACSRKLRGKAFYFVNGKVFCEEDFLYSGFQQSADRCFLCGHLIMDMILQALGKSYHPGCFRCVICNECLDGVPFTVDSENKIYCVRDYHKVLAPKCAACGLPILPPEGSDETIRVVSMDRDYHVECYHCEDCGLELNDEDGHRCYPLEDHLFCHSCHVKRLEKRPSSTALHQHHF
UniProt P48449: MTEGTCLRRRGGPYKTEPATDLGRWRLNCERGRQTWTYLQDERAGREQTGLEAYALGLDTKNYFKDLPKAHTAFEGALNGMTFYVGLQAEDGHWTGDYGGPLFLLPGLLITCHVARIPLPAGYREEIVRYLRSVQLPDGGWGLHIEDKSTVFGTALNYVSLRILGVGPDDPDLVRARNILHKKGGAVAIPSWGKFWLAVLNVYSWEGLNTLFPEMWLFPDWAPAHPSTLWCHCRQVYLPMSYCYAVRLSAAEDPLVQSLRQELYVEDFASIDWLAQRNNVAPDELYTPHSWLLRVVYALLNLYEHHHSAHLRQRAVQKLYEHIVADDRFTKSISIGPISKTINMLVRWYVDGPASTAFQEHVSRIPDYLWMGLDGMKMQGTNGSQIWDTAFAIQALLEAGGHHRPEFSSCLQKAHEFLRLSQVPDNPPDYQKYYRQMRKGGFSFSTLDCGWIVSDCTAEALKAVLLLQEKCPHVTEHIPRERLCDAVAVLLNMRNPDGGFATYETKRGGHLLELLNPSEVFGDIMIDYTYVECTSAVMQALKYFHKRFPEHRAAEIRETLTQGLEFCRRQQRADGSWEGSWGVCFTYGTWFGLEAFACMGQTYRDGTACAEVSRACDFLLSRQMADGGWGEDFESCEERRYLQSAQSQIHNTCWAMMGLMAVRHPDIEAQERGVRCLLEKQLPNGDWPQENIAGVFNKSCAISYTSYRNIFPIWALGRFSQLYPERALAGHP
UniProt Q96CX6, whole entry, looked up: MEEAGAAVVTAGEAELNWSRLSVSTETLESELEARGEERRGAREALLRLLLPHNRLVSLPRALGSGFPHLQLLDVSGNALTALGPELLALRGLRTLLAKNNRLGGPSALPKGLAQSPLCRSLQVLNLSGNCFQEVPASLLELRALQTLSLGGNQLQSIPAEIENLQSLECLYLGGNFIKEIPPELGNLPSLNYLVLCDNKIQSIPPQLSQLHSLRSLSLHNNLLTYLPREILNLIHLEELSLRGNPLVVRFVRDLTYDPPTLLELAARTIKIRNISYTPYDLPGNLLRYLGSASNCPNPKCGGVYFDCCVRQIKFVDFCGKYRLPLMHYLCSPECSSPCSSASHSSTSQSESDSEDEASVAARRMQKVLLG
UniProt Q96GY3: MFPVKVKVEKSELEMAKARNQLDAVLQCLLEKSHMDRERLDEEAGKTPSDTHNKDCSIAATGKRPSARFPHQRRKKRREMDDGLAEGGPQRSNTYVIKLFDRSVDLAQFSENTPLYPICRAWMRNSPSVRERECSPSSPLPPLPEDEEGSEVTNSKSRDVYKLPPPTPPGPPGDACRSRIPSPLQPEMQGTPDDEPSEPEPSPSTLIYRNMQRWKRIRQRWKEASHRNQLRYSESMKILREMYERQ
UniProt Q96II8: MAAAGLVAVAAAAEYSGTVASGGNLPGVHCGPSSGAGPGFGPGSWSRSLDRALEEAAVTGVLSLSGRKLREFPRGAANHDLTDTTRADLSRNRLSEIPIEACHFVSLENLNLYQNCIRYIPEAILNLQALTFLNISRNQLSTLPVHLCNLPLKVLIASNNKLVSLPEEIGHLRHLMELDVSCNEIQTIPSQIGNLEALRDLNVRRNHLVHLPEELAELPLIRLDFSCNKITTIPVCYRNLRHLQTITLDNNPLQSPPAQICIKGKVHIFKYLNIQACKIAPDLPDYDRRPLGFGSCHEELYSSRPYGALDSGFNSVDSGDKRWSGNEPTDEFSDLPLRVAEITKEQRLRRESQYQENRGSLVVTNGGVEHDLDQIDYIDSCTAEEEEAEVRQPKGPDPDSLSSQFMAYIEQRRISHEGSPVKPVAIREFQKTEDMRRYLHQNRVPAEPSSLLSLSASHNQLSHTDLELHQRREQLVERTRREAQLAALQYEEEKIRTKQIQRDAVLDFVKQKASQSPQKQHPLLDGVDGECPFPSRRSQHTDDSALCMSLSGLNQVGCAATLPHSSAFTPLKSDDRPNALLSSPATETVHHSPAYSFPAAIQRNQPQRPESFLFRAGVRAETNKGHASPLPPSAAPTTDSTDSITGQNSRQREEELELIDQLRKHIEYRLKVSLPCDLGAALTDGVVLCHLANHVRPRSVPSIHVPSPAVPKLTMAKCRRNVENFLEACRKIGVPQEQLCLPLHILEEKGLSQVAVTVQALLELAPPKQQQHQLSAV

Compound: Cc1cc(ccc1-c1ccccc1)C(=O)N1CCCN(CC1)C(=O)CCl [compound 10]
Test: probe-labelled cysteine peptide fold change vs DMSO (competition) (log2 fold change); higher = less target engagement (more negative = stronger competition)
Settings: 50 µM; THP-1; incubation time: 4 h
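Also: competitive profiling in live THP-1 cells: cysteine peptides tagged with an iodoacetamide desthiobiotin (IA-DTB) probe, intensity after compound treatment relative to DMSO-treated cells.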

Row | Target | probe-labelled cysteine peptide fold change
1 | LRRFIP1_Q32MZ4_14_EIDCLSPEAQK (UniProt Q32MZ4) | -0.404
2 | LRRC8A_Q8IWT6_776_LECLPVELGECPLLK (UniProt Q8IWT6) | -0.0991
3 | LIMS1_P48059_240_GLAYCETHYNQLFGDVCFHCNR (UniProt P48059) | 0.163
4 | LRRC8C_Q8TDW0_599_MTNLTELELVHCDLER (UniProt Q8TDW0) | 0.204
5 | LRRC14_Q15048_109_LHTSEPGASTQPLCR (UniProt Q15048) | -0.21
6 | LPXN_O60711_237_VLTAMNQTWHPEHFFCSHCGEVFGAEGFHEK (UniProt O60711) | 0.198
7 | LGALS9_O00182_74_FEDGGYVVCNTR (UniProt O00182) | 0.163
8 | LRPPRC_P42704_930_CVANNQVETLEK (UniProt P42704) | -0.083
9 | LRPPRC_P42704_413_EVQMHSFPLQFTLHCALLANK (UniProt P42704) | 0.0124
10 | LRRFIP1_Q32MZ4_726_SEDADRCTLPEHESPSQDISDACEAESTER (UniProt Q32MZ4) | -0.346
11 | LPCAT2_Q7L5N7_223_RTTSGGEWPQILVFPEGTCTNR (UniProt Q7L5N7) | -0.0316
12 | LRPPRC_P42704_721+722_AKYESDMVTGGYAALINLCCR (UniProt P42704) | -0.366
13 | LMNB2_Q03252_212_CQSLQEELDFRK (UniProt Q03252) | -0.0384
14 | LRCH4_O75427_283_GSALGDLAPSRPPSFSPCPAEDLFPGHR (UniProt O75427) | -1.33
15 | LRMP_Q12912_355_SFNPLEDDDDCQIK (UniProt Q12912) | -0.0639
16 | LRRC8A_Q8IWT6_776_GNRLECLPVELGECPLLK (UniProt Q8IWT6) | -0.161
17 | LPXN_O60711_152_GHCASCQKPIAGK (UniProt O60711) | -0.133
18 | LIG4_P49917_20_AASQTSQTVASHVPFADLCSTLER (UniProt P49917) | -0.26
19 | LIMS1_P48059_240+252_GLAYCETHYNQLFGDVCFHCNR (UniProt P48059) | 0.118
20 | LRPPRC_P42704_130_SCGSLLPELKLEER (UniProt P42704) | -0.524

Row | Target | probe-labelled cysteine peptide fold change
21 | LMNB2_Q03252_212_CQSLQEELDFR (UniProt Q03252) | 0.443
22 | LRP1B_Q9NZR2_1079_DCEDGSDEK (UniProt Q9NZR2) | 0.503
23 | LIMD1_Q9UGP4_630_DYHVECYHCEDCGLELNDEDGHR (UniProt Q9UGP4) | 0.0219
24 | LSM2_Q9Y333_26_NDLSICGTLHSVDQYLNIK (UniProt Q9Y333) | 0.253
25 | LRRC47_Q8N1G4_367_LHEDLCEK (UniProt Q8N1G4) | -0.0285
26 | LSP1_P33241_36_AEASSDPGAEEREELLGPTAQWSVEDEEEAVHEQCQHER (UniProt P33241) | 0.363
27 | LPIN2_Q92539_322_DASMEDTVCTIVKPK (UniProt Q92539) | -0.497
28 | LRP1_Q07954_2741_FCSEAQFECQNHR (UniProt Q07954) | 0.282
29 | LSS_P48449_636_QMADGGWGEDFESCEERR (UniProt P48449) | -0.0587
30 | LRPPRC_P42704_571_YCQEPR (UniProt P42704) | 0.6
31 | LRRC58_Q96CX6_296_YLGSASNCPNPK (UniProt Q96CX6) | -0.574
32 | LIMK1_P53667_49_IYDGQYLQALNADWHADCFR (UniProt P53667) | 0.0155
33 | LIN37_Q96GY3_28_NQLDAVLQCLLEK (UniProt Q96GY3) | -0.321
34 | LRBA_P50851_832_NSPQCPESMEVR (UniProt P50851) | 0.0622
35 | LRCH4_O75427_105_CLNPALGNLTALTYLNLSR (UniProt O75427) | -0.184
36 | LRCH3_Q96II8_277_YLNIQACK (UniProt Q96II8) | 0.0732
37 | LRRC41_Q15345_170_QLTICNMLQGATELVAEPNRR (UniProt Q15345) | -0.636
38 | LRRC8C_Q8TDW0_728_VESLPDELYFCK (UniProt Q8TDW0) | 0.479
39 | LTN1_O94822_1745_KFHSACLYK (UniProt O94822) | -0.376

Random excerpt: 2 entries already listed.
Row | Target | probe-labelled cysteine peptide fold change
31 | LRRC58_Q96CX6_296_YLGSASNCPNPK (UniProt Q96CX6) | -0.574
22 | LRP1B_Q9NZR2_1079_DCEDGSDEK (UniProt Q9NZR2) | 0.503
